# The other results are listed elsewhere or left out. The main result of the screen is listed elsewhere. These columns were measured beside it and carry no call. Most of these compounds were active or inconclusive in the main read-out, so they are no random draw. Potencies come from curve fits of mixed quality, noted in brackets.
# Test: qHTS Assay to Find Inhibitors of Chronic Active B-Cell Receptor Signaling
# Conditions: ABC-DLBCL IkBa-CBG/CBR reporter, luminescence ratio (green luciferase fused to IkBa over red control in TMD8 lymphoma cells), 4 h
# Summary of the method: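 TMD8 human ABC-DLBCL cells with doxycycline-inducible IκBα–green luciferase fusion and unfused red luciferase, in 0.5% FBS medium; compounds up to 46 uM, 4 h at 37C. Green/red luminescence ratio, filter-overlap corrected, fitted to concentration-response curves.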
# [1] = measured here: CBR red luminescence, cell number
# [2] = measured here: IkBa-CBG green luminescence
SMILES,AC50 [1],AC50 [2]
COc1ccc(-c2nonc2NC(=O)c2oc3ccccc3c2C)cc1OC,"0.708 µM [rising, full curve]",
COc1ccc(S(=O)(=O)Cc2ccccc2)cc1N,"15.8 µM [rising, partial curve, poor fit]",
CCCCOc1c(Br)cc(CNCCCN2CCOCC2)cc1OC,"35.5 µM [falling, single point]",
COc1cc(OC)c2c(c1)OC(=O)CC2c1ccc2c(c1)OCO2 (configuration not stated),"32.6 µM [rising, partial curve, poor fit]",
CCOc1ccc(NC(=O)C2CCCN(S(=O)(=O)c3cnc[nH]3)C2)cc1 (configuration not stated),"11.2 µM [falling, partial curve, poor fit]",
C(=N\Nc1ccc2ccccc2n1)/c1ccc2c(c1)OCCO2,"7.94 µM [falling, partial curve]",
Cc1[nH][nH]c(=O)c1C(c1ccc(-c2ccccc2C(=O)O)o1)c1c(C)[nH][nH]c1=O,"14.1 µM [rising, single point]",
Cc1ccc(S(=O)(=O)/C(C#N)=C/c2c(N3CC(C)OC(C)C3)nc3c(C)cccn3c2=O)cc1 (configuration not stated),"16.4 µM [falling, partial curve, poor fit]",
O=C(COc1cccc(Oc2ccccc2)c1)Nc1ccc(SC(F)F)cc1,"6.51 µM [falling, partial curve, poor fit]",
O=C(NCCCN1CCCC1=O)c1ccc2c(c1)ncn2C1CCCCC1,"8.2 µM [rising, partial curve, poor fit]",
COc1ccc(Cn2c(-c3ccco3)nc3oc4cc(OC)ccc4c(=O)c3c2=O)cc1,"3.55 µM [falling, full curve]",
Cc1ccc(-c2nc(-c3ccncc3)no2)cc1Cl,"0.398 µM [rising, full curve, poor fit]",
CSc1c(-c2ccccn2)c(N)nn1C(=O)C1CC1,"12.6 µM [rising, single point]",
COc1ccc2c(C)cc(SCC(=O)N3CCOCC3)nc2c1,"0.0891 µM [rising, full curve, poor fit]",
O=C(Nc1nnc(Cc2ccc(Cl)cc2)s1)c1ccncc1,"12.6 µM [rising, single point]",
N#Cc1cn(Cc2ccccc2)c2ccccc12,"3.26 µM [rising, full curve, poor fit]","5.8 µM [falling, partial curve, poor fit]"
CNC(=O)C1CCN(C(=O)c2ccc(-c3ccccc3)cc2)CC1,"0.82 µM [falling, full curve, poor fit]",
Cc1cccc(C)c1NC(=O)COC(=O)CCc1ccc(S(=O)(=O)N2CCCCC2)cc1,"14.6 µM [falling, partial curve]",
CSc1nnc(NC(=O)c2ccc3c(c2)OCO3)s1,"1.58 µM [falling, full curve, poor fit]",
Cn1c(-c2ccco2)nc2cc3ccccc3cc21,"12.6 µM [falling, single point]",
COc1ccc(-c2nc(CSCC(=O)NCCC3=CCCCC3)c(C)o2)cc1OC,"16.4 µM [rising, single point]",

SMILES,AC50 [1],AC50 [2]
O=C(O)c1ccccc1C(=O)NNc1ccc(Cl)cc1,"11.2 µM [rising, partial curve, poor fit]",
CC(=O)NS(=O)(=O)c1ccc(NC(=O)c2cc(-c3ccc(C)c(C)c3)nc3ccccc23)cc1,,"3.98 µM [rising, full curve, poor fit]"
CC(=O)C1=C(C)NC(SCSc2ccccc2)=C(C#N)C1c1cccnc1 (configuration not stated),"20.6 µM [falling, partial curve, poor fit]",
COc1ccc(C2NC(=O)NC3=C2CCc2ccccc23)cc1 (configuration not stated),"8.91 µM [rising, partial curve]",
Cc1cc(S(=O)(=O)N2CCN=C2c2ccccc2)ccc1F,"29.1 µM [rising, single point]",
COc1ccc(NC(=O)CCN2C(=O)c3ccccc3S2(=O)=O)c(OC)c1,"35.5 µM [rising, single point]",
O=C(N/N=C/c1ccc(Br)s1)c1ccccc1[N+](=O)[O-],"7.94 µM [falling, partial curve]",
CC(=O)Nc1sc(N/N=C\c2ccc(O)cc2)nc1-c1cccs1,"35.5 µM [falling, single point]",
O=C(O)c1cccc(N/N=C/c2sc(N3CCOCC3)nc2-c2ccccc2)c1,"13 µM [falling, partial curve]",
CC(C)(C)c1cc(CN2CCN(CCC#N)CC2)cc(C(C)(C)C)c1O,"7.08 µM [falling, full curve, poor fit]",
COc1ccc(S(=O)(=O)N2CCOCC2)cc1NC(=O)c1ccncc1,"2.91 µM [falling, full curve]",
CCc1sc(Nc2cccc(Cl)c2)nc1-c1cc2cccc(OC)c2oc1=O,"22.4 µM [falling, single point]",
O=C(Nc1ccc(Cl)cc1C(=O)Nc1ccncc1)c1ccco1,"4.11 µM [falling, partial curve, poor fit]",
Cc1cc(CNC(=O)C(C)n2cc([N+](=O)[O-])cn2)c2ccccc2n1 (configuration not stated),"35.5 µM [rising, single point]","25.1 µM [falling, single point]"
COCC(C)n1c(SCC(=O)Nc2sccc2C(N)=O)nc2ccccc2c1=O (configuration not stated),"18.4 µM [falling, single point]",
C=CCSc1nnc2c(n1)OC(c1ccco1)Nc1ccccc1-2 (configuration not stated),"10.3 µM [falling, partial curve]",
CCOC(=O)Nc1ccc(C(=O)/C=C/c2ccccc2)cc1,"35.5 µM [falling, single point]","15.8 µM [rising, partial curve, poor fit]"
O=C(Nc1ccc2nc3n(c(=O)c2c1)CCCCC3)c1ccccc1[N+](=O)[O-],"7.94 µM [falling, partial curve]",
CN(C)CCCN(C(=O)c1ccc(C(=O)c2ccccc2)cc1)c1nc2cc3c(cc2s1)OCO3,"22.4 µM [falling, partial curve, poor fit]",
COC(=O)c1ccc(OCC(=O)c2cccc(OC)c2)cc1,"0.82 µM [falling, full curve, poor fit]",
C/C(CC(=O)Nc1cccnc1)=N\NC(=O)C(=O)Nc1cccc(C)c1,"16.4 µM [falling, single point]",

# Reprinted from the results shown for reference:
SMILES,AC50 [1],AC50 [2]
CCCCOc1c(Br)cc(CNCCCN2CCOCC2)cc1OC,"35.5 µM [falling, single point]",
COc1cc(OC)c2c(c1)OC(=O)CC2c1ccc2c(c1)OCO2 (configuration not stated),"32.6 µM [rising, partial curve, poor fit]",
CCOc1ccc(NC(=O)C2CCCN(S(=O)(=O)c3cnc[nH]3)C2)cc1 (configuration not stated),"11.2 µM [falling, partial curve, poor fit]",

# Later entries.

SMILES,AC50 [1],AC50 [2]
CN(C(=O)c1c[nH]c2ccc(S(=O)(=O)Nc3cccc(C(F)(F)F)c3)cc2c1=O)C1CCCCC1,"5.62 µM [falling, full curve, poor fit]",
COc1cccc2sc(NC(=O)c3ccc(S(=O)(=O)N4CCOCC4)cc3)nc12,"7.31 µM [falling, partial curve]","2.31 µM [rising, partial curve, poor fit]"
O=C(Cn1c(=O)cnc2ccccc21)Nc1cc(Cl)ccc1N1CCOCC1,"0.58 µM [rising, full curve, poor fit]",
COc1ccc(-c2noc(-c3cccc(Cl)c3)n2)cc1OC,"14.6 µM [rising, partial curve, poor fit]",
O=C(C1=C[C@@H](c2csc3ccccc23)C[C@@H](OCCCCO)O1)N1CCN(Cc2ccc3c(c2)OCO3)CC1,"10 µM [falling, partial curve, poor fit]",
Cc1ccc(OC(=O)c2sc(Cl)nc2C)cc1C,,"20.6 µM [rising, partial curve, poor fit]"
CCOc1ccc(N=CC2=C(O)CC(C)(C)CC2=O)cc1,"11.2 µM [rising, partial curve, poor fit]",
CCOC(=O)C(Sc1nn(C)c(=S)s1)C(C)=O (configuration not stated),"29.1 µM [rising, single point]",
Cc1ccccc1C(=O)NC[C@@H]1CCCN2CCCC[C@H]12,"8.91 µM [rising, partial curve]",
CC(=O)Nc1ccc(Nc2nc(-c3sc(C)nc3C)cs2)cc1,"17.8 µM [falling, single point]",
COC(=O)c1cc2sccc2n1Cc1ccc(C)cc1,"2.51 µM [rising, full curve, poor fit]",
COc1ccc(Br)cc1[C@H]1[C@@H]2C=CCC[C@@]2(C)C(=O)N1Cc1ccccc1,"12.6 µM [falling, partial curve, poor fit]",
COc1ccc(-c2csc(NC(=O)c3ccccc3F)n2)cc1,"7.94 µM [rising, partial curve]",
CCOC(=O)C(C)n1cnc2c(nnn2-c2cccc(Cl)c2)c1=O (configuration not stated),"3.26 µM [falling, single point]",
Cc1ccc(OCc2ccc(C(=O)N3CCOCC3)cc2)cc1C,"3.26 µM [falling, partial curve]",
Cc1occc1C(=O)N/N=C/c1ccccc1[N+](=O)[O-],"11.2 µM [falling, partial curve, poor fit]",
Cc1ccccc1OCC(=O)Nc1ccc(NC(=O)c2ccco2)cc1,"35.5 µM [rising, partial curve, poor fit]",
Oc1ccccc1/C=N/N1CCCCC1,"7.08 µM [rising, full curve, poor fit]",
CC(C)CN=CC1=C(O)c2ccccc2C1=O,"10 µM [falling, partial curve, poor fit]",
Cc1cc(C)n(CCN(C)Cc2nc(Cc3ccccc3F)no2)n1,"2.82 µM [falling, full curve]",
COc1ccc(/C=C(\NC(=O)c2ccccc2)C(=O)N2CCCCC2)cc1OC,"35.5 µM [rising, single point]",
